Data published in patent US20220332812A1, “TREATMENT METHODS FOR EYE DISORDERS” (University of Pittsburgh - of the Commonwealth System of …, priority 2019, published 2022).
No constants are given. Whether binding was seen depends on the method and setting. In cells and extracts the contact can be indirect. Some binding calls cover weakened binding; strength is not graded here.

Amino acid sequences for entries named in this document (tags omitted). Residues count along the entry.
UniProt P09055, residues 21-798: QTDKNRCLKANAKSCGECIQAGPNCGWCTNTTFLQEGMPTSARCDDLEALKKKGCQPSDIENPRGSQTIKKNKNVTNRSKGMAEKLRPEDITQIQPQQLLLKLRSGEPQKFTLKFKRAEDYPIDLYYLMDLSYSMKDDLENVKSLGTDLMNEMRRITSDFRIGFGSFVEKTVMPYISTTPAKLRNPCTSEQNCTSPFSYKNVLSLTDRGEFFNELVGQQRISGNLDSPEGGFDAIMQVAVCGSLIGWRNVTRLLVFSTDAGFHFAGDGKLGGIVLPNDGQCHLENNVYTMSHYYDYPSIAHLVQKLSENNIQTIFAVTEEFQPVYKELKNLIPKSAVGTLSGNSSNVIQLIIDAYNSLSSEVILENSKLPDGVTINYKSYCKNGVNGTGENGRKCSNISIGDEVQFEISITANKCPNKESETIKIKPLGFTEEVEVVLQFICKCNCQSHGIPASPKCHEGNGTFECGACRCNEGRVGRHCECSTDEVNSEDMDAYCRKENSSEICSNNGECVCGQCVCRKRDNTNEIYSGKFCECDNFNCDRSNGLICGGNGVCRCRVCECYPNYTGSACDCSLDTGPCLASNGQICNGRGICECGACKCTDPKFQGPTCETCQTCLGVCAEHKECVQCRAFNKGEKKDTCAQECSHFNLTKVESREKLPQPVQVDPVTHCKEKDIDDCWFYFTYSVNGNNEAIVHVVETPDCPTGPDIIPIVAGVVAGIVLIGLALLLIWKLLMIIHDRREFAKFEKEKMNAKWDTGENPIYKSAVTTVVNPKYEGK

Assays:
[1] = target: T1, Dab2 (endogenous, in mouse bone marrow-derived neutrophils) (mouse) (UniProt P98078); assay: pull-down / co-immunoprecipitation from neutrophil lysates, western blot
T1 sequence (looked up): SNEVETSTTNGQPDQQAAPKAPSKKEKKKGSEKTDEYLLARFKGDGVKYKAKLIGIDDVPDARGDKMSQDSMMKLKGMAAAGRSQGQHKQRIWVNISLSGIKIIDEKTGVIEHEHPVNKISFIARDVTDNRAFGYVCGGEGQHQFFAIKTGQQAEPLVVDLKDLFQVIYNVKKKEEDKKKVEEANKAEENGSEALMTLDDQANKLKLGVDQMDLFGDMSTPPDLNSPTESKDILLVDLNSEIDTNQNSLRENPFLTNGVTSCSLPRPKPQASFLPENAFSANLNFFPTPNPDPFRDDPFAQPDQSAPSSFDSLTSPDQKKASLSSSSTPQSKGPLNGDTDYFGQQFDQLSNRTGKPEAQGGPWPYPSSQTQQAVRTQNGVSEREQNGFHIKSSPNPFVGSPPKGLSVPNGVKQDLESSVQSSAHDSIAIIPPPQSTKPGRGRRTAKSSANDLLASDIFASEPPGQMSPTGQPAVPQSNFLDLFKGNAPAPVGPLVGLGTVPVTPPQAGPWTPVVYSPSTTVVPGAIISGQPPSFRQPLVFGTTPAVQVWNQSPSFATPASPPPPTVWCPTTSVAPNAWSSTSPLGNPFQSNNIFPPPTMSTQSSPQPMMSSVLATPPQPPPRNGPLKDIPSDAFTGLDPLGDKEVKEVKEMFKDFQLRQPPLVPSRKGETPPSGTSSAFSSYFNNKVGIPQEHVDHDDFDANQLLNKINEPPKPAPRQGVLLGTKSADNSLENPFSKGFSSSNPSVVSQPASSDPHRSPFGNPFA

[2] = target: integrin β1 (endogenous, in mouse bone marrow-derived neutrophils) (mouse) (UniProt P09055); assay: co-immunoprecipitation from neutrophil lysates, western blot
[3] = target: T2, PTP1B (endogenous, astrocytes) (rat) (UniProt P20417); assay: co-immunoprecipitation in wild-type astrocytes
T2 sequence (looked up): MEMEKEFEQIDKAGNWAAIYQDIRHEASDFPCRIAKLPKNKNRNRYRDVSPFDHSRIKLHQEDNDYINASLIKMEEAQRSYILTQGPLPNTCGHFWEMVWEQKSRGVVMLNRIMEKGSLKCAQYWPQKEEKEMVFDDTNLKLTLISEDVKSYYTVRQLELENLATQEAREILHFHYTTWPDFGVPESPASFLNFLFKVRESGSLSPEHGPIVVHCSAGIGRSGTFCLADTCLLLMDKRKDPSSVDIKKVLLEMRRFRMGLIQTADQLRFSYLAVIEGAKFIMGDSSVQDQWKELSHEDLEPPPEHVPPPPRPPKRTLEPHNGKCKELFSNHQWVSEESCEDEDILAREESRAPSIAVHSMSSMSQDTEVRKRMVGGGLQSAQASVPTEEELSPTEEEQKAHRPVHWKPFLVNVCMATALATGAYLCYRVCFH

B1: LCN-2 (endogenous, in mouse bone marrow-derived neutrophils) (protein, UniProt P11672 21-200, looked up)
chain: QDSTQNLIPAPSLLTVPLQPDFRSDQFRGRWYVVGLAGNAVQKKTEGSFTMYSTIYELQENNSYNVTSILVRDQDQGCRYWIRTFVPSSRAGQFTLGNMHRYPQVQSYNVQVATTDYNQFAMVFFRKTSENKQYFKITLYGRTKELSPELKERFTRFAKSLGLKDDNIIFSVPTDQCIDN
For B1, the binding [1] was “binds”.

B2: Dab2 (endogenous, in mouse bone marrow-derived neutrophils) (protein, UniProt P98078 2-766, looked up)
chain: T1 sequence (looked up)
For B2, the binding [2] was “binds”.

B3: βA3/A1-crystallin protein (endogenous, wild-type astrocytes) (protein, rat, UniProt P14881 1-215, looked up)
chain: METQTVQRELETLPTTKMAQTNPMPGSMGPWKITIYDQENFQGKRMEFTSSCPNVSERSFDNVRSLKVECGAWIGYEHTSFCGQQFILERGEYPRWDAWSGSNAYHIERLMSFRPICSANHKESKITIFEKENFIGRQWEICDDYPSLQAMGWFNNEVGSMKIQCGAWVCYQYPGYRGYQYILECDHHGGDYKHWREWGTHAQTSQIQSIRRIQQ
In the case of B3, the binding [3] is reported as “binds”.
